Measured values published in patent publication US6593122.
Protein sequences can lack the tags named with them. For part of these data: For at least one entry, the source does not settle the construct or the ends of the probe.

What was measured:
[1] = system: T1, M.BseRI methylase (Bacillus species R); assay: activity in cells; settings: 10 of 36 plasmids resistant to BseRI digestion, both vector sites fully modified; protein in cells; protein details: expressed from pACYC184 in E. coli ER2683; only the site is given
T1 sequence: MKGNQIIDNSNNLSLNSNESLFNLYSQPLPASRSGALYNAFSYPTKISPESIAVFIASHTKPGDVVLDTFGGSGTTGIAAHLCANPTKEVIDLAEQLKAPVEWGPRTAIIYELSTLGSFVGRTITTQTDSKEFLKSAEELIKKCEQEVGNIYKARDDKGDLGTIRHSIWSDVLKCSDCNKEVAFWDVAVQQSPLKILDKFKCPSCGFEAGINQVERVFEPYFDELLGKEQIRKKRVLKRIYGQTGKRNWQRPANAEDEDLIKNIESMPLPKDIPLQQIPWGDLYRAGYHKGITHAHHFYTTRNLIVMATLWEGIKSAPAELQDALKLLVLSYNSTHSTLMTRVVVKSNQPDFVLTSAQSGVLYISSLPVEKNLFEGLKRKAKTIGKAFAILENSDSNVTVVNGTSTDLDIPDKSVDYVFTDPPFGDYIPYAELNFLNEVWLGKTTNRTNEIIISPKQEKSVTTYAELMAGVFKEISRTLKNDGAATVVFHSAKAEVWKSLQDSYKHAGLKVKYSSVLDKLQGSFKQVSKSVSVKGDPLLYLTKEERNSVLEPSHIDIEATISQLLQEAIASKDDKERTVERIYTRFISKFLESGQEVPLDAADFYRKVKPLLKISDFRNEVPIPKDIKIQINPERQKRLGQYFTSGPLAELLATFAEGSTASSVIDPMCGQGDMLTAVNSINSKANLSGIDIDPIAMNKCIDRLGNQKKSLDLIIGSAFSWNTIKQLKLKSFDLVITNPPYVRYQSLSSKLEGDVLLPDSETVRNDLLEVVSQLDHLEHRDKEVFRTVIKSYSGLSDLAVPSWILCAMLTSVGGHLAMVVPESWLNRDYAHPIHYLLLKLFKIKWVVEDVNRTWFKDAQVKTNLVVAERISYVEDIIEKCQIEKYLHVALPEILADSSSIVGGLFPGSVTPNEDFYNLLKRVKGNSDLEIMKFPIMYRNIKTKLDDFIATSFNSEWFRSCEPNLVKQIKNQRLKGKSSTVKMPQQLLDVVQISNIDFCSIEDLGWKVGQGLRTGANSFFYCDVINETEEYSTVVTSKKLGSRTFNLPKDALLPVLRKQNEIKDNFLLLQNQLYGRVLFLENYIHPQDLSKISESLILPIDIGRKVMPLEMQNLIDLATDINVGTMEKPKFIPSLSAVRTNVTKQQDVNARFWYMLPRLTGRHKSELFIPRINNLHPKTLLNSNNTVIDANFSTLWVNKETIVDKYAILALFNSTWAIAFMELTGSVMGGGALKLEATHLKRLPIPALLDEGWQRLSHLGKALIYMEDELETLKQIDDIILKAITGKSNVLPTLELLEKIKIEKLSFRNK

[2] = system: T2, BseRI restriction endonuclease (native) (Bacillus species R); assay: enzyme reaction in vitro; settings: lambda DNA digested with purified native BseRI; purified native protein
T2 sequence: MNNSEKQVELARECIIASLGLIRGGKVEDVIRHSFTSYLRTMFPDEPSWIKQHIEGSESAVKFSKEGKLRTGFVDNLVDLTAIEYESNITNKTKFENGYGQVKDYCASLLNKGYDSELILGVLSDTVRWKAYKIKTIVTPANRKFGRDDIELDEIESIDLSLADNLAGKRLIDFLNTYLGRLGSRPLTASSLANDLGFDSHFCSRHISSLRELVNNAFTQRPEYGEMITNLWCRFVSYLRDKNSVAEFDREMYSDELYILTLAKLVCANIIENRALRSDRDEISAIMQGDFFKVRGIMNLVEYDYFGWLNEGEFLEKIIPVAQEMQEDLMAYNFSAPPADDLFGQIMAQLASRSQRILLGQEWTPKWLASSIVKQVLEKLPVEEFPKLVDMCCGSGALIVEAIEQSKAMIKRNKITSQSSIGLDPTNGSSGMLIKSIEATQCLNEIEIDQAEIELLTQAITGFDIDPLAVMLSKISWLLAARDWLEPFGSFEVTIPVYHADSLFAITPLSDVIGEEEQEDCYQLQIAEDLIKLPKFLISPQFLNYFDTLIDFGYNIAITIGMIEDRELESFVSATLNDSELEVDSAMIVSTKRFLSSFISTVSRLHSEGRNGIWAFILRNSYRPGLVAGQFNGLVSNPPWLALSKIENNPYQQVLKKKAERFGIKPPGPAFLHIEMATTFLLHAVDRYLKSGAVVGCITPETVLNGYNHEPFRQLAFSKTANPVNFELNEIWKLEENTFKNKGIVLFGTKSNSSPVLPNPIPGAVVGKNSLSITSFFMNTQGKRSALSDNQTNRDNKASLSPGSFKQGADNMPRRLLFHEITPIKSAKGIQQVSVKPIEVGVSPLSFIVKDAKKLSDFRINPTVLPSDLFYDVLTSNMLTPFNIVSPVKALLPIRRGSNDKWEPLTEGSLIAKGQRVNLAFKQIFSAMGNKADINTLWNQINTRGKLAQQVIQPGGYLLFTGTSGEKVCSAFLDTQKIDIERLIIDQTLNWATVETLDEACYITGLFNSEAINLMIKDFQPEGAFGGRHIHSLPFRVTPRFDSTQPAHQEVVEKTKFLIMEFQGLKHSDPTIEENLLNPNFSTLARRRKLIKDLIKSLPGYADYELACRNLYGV

[3] = system: T3, BseRI restriction endonuclease (recombinant) (Bacillus species R); assay: enzyme reaction in vitro; settings: lambda DNA digested with IPTG-induced cell extract; protein in a lysate after overexpression
T3 sequence: T2 sequence

Sequence | activity on this sequence [1] | activity on this sequence [2] | activity on this sequence [3]
GAGGAG (double strand) [BseRI sites (2) in pACYC184-BseRIM plasmid] | active |  | 
GAGGAG (double strand) [BseRI recognition site in lambda DNA] |  | active | active
